Experimental data published in the supplement of paper PMC4604168 (melanoma cell lines).
The other results are listed elsewhere or left out. Repeats are few or missing, and single values can be far off.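 Imaging used 1,536-well plates; nuclei positive for cleaved PARP by antibody were divided by total DNA-stained nuclei to yield the apoptosis fraction. Doses for screening kept most cells viable, and cell lines differ markedly in resting and induced cleaved-PARP levels.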

What was measured:
Experiment in all cases: cleaved PARP positive nuclei fraction relative to DMSO control; melanoma cells; higher = more apoptosis
Conditions in all cases: library dose: low library concentration; 72 h
CBRC034 = tested on: CBRC034 (line from a melanoma biopsy)
COLO792 = tested on: COLO792
COLO800 = tested on: COLO800
COLO829 = tested on: COLO829
G361 = tested on: G361
IPC-298 = tested on: IPC-298
IST-MEL1 = tested on: IST-MEL1
LB2518-MEL = tested on: LB2518-MEL
LOXIMVI = tested on: LOXIMVI
MEL-HO = tested on: MEL-HO

| SMILES | cleaved PARP positive nuclei fraction (CBRC034) | cleaved PARP positive nuclei fraction (COLO792) | cleaved PARP positive nuclei fraction (COLO800) | cleaved PARP positive nuclei fraction (COLO829) | cleaved PARP positive nuclei fraction (G361) | cleaved PARP positive nuclei fraction (IPC-298) | cleaved PARP positive nuclei fraction (IST-MEL1) | cleaved PARP positive nuclei fraction (LB2518-MEL) | cleaved PARP positive nuclei fraction (LOXIMVI) | cleaved PARP positive nuclei fraction (MEL-HO) |
| --- | --- | --- | --- | --- | --- | --- | --- | --- | --- | --- |
| Cn1cc(C2=C(c3cn(C4CCN(Cc5ccccn5)CC4)c4ccccc34)C(=O)NC2=O)c2ccccc21 [Enzastaurin] + CCCS(=O)(=O)Nc1ccc(F)c(C(=O)c2c[nH]c3ncc(Cl)cc23)c1F [PLX4720] (first compound 0.8 µM, partner dose 0.08 µM) | 150% | 94.1% | 92.2% | 33.6% | 150% | 85.1% | 257% | 106% | 131% | 80.1% |
| C[C@]12O[C@H](C[C@]1(O)CO)n1c3ccccc3c3c4c(c5c6ccccc6n2c5c31)CNC4=O [Lestaurtinib] + CNC(=O)c1cc(Oc2ccc(NC(=O)Nc3ccc(Cl)c(C(F)(F)F)c3)cc2)ccn1 [sorafenib] (first compound 0.004 µM, partner dose 0.4 µM) | 72.5% | 14.6% | 86.6% | 56.7% | 75.3% | 63.5% | 32.2% | 228% | 63.8% | 195% |
| N.N.[Cl][Pt][Cl] [cisplatin] + Nc1nc(F)nc2c1ncn2[C@@H]1O[C@H](CO)[C@@H](O)[C@@H]1O [fludarabine] (first compound 1.6 µM, partner dose 0.2 µM) | 24.2% | 174% | 82.9% | 81.3% | 113% | 43.1% | 56.9% | 144% | 158% | 91.1% |
| Clc1ccc(Nc2nnc(Cc3ccncc3)c3ccccc23)cc1 [vatalanib] + C[As](C)SC[C@H](NC(=O)CC[C@H](N)C(=O)O)C(=O)NCC(=O)O [Darinaparsin] (first compound 2 µM, partner dose 0.4 µM) | 77.7% | 95.3% | 105% | 146% | 83.8% | 20.2% | 123% | 145% | 53.9% | 142% |
| Cn1cnc2c(F)c(Nc3ccc(Br)cc3Cl)c(C(=O)NOCCO)cc21 [selumetinib] + C[As](C)SC[C@H](NC(=O)CC[C@H](N)C(=O)O)C(=O)NCC(=O)O [Darinaparsin] (first compound 0.015 µM, partner dose 0.4 µM) | 169% | 89.6% | 232% | 87.6% | 77.1% | 51.2% | 62.3% | 162% | 33.2% | 84.4% |
| CC(C)C[C@H](NC(=O)[C@H](Cc1ccccc1)NC(=O)c1cnccn1)B(O)O [Bortezomib] + C[As](C)SC[C@H](NC(=O)CC[C@H](N)C(=O)O)C(=O)NCC(=O)O [Darinaparsin] (first compound 0.001 µM, partner dose 0.4 µM) | 326% | 108% | 196% | 268% | 1700% | 155% | 89.7% | 283% | 74% | 71.3% |
| Cn1cc(C2=C(c3cn(C4CCN(Cc5ccccn5)CC4)c4ccccc34)C(=O)NC2=O)c2ccccc21 [Enzastaurin] + CC(=O)c1c(C)c2cnc(Nc3ccc(N4CCNCC4)cn3)nc2n(C2CCCC2)c1=O [palbociclib] (first compound 0.8 µM, partner dose 0.04 µM) | 35.4% | 93.6% | 19.2% | 110% | 87.9% | 87.7% | 146% | 56.2% | 80.9% | 60.8% |
| Nc1ccn([C@@H]2O[C@H](CO)[C@@H](O)C2(F)F)c(=O)n1 [gemcitabine] + C[As](C)SC[C@H](NC(=O)CC[C@H](N)C(=O)O)C(=O)NCC(=O)O [Darinaparsin] (first compound 0.0004 µM, partner dose 0.4 µM) | 169% | 155% | 189% | 131% | 79.4% | 137% | 312% | 123% | 86.8% | 166% |
| Cn1cc(C2=C(c3cn(C4CCN(Cc5ccccn5)CC4)c4ccccc34)C(=O)NC2=O)c2ccccc21 [Enzastaurin] + Cc1cc(Nc2cc(N3CCN(C)CC3)nc(/C=C/c3ccccc3)n2)n[nH]1 [ENMD2076] (first compound 0.8 µM, partner dose 0.04 µM) | 125% | 48.8% | 114% | 127% | 65.7% | 86.8% | 29.4% | 224% | 122% | 38.4% |
| C[C@]12O[C@H](C[C@]1(O)CO)n1c3ccccc3c3c4c(c5c6ccccc6n2c5c31)CNC4=O [Lestaurtinib] + N.N.[Cl][Pt][Cl] [cisplatin] (first compound 0.004 µM, partner dose 1.6 µM) | 66.9% | 100% | 81.2% | 64.7% | 110% | 89.5% | 59.5% | 96.6% | 143% | 87.1% |
| Cn1cc(C2=C(c3cn(C4CCN(Cc5ccccn5)CC4)c4ccccc34)C(=O)NC2=O)c2ccccc21 [Enzastaurin] + COc1ccc(Cl)c(Nc2nc3ccccc3nc2NS(=O)(=O)c2cccc(NC(=O)C(C)(C)N)c2)c1 [XL147] (first compound 0.8 µM, partner dose 0.8 µM) | 44% | 63.1% | 82.3% | 82.2% | 41.5% | 134% | 62.3% | 192% | 115% | 59.7% |
| Cn1cc(C2=C(c3cn(C4CCN(Cc5ccccn5)CC4)c4ccccc34)C(=O)NC2=O)c2ccccc21 [Enzastaurin] + CS(=O)(=O)CCNCc1ccc(-c2ccc3ncnc(Nc4ccc(OCc5cccc(F)c5)c(Cl)c4)c3c2)o1 [lapatinib] (first compound 0.8 µM, partner dose 0.8 µM) | 152% | 132% | 139% | 73% | 39.4% | 61.7% | 181% | 108% | 182% | 163% |
| C[C@]12O[C@H](C[C@]1(O)CO)n1c3ccccc3c3c4c(c5c6ccccc6n2c5c31)CNC4=O [Lestaurtinib] + Cn1c(=O)n(-c2ccc(C(C)(C)C#N)cc2)c2c3cc(-c4cnc5ccccc5c4)ccc3ncc21 [NVP-BEZ235] (first compound 0.004 µM, partner dose 0.004 µM) | 61.2% | 114% | 140% | 109% | 92.2% | 130% | 62.1% | 52.1% | 125% | 52.1% |
| CCN(CC)CCNC(=O)c1c(C)[nH]c(/C=C2\C(=O)Nc3ccc(F)cc32)c1C [sunitinib] + C[As](C)SC[C@H](NC(=O)CC[C@H](N)C(=O)O)C(=O)NCC(=O)O [Darinaparsin] (first compound 0.4 µM, partner dose 0.4 µM) | 72.9% | 93.1% | 148% | 126% | 85.4% | 46.3% | 40.9% | 116% | 182% | 145% |
| C[C@]12O[C@H](C[C@]1(O)CO)n1c3ccccc3c3c4c(c5c6ccccc6n2c5c31)CNC4=O [Lestaurtinib] + CN(c1ncccc1CNc1nc(Nc2ccc3c(c2)CC(=O)N3)ncc1C(F)(F)F)S(C)(=O)=O [PF562271] (first compound 0.004 µM, partner dose 0.08 µM) | 89.4% | 131% | 51.3% | 75.3% | 144% | 47.5% | 80.1% | 47.9% | 81.4% | 114% |
| Nc1nc(F)nc2c1ncn2[C@@H]1O[C@H](CO)[C@@H](O)[C@@H]1O [fludarabine] + C[As](C)SC[C@H](NC(=O)CC[C@H](N)C(=O)O)C(=O)NCC(=O)O [Darinaparsin] (first compound 0.2 µM, partner dose 0.4 µM) | 117% | 41.4% | 198% | 96.2% | 136% | 243% | 67.1% | 108% | 124% | 115% |
| Cn1cc(C2=C(c3cn(C4CCN(Cc5ccccn5)CC4)c4ccccc34)C(=O)NC2=O)c2ccccc21 [Enzastaurin] + CC(C)C[C@H](NC(=O)[C@H](Cc1ccccc1)NC(=O)c1cnccn1)B(O)O [Bortezomib] (first compound 0.8 µM, partner dose 0.001 µM) | 409% | 105% | 146% | 148% | 1190% | 46.3% | 115% | 196% | 104% | 113% |
| NC1(c2ccc(-c3nc4ccn5c(=O)[nH]nc5c4cc3-c3ccccc3)cc2)CCC1 + N.N.[Cl][Pt][Cl] [cisplatin] (first compound 0.4 µM, partner dose 1.6 µM) | 358% | 226% | 113% | 179% | 33.4% | 184% | 96.9% | 56.6% | 127% | 28.8% |
| C[C@]12O[C@H](C[C@]1(O)CO)n1c3ccccc3c3c4c(c5c6ccccc6n2c5c31)CNC4=O [Lestaurtinib] + OCc1c[nH]c2ccccc12 [Indole-3-carbinol] (first compound 0.004 µM, partner dose 0.8 µM) | 64.8% | 152% | 127% | 95.3% | 33.5% | 84.9% | 59.3% | 110% | 30.6% | 121% |
| NC(=O)c1ccc(N(C(N)=O)c2c(F)cccc2F)nc1-c1ccc(F)cc1F + C[As](C)SC[C@H](NC(=O)CC[C@H](N)C(=O)O)C(=O)NCC(=O)O [Darinaparsin] (first compound 0.4 µM, partner dose 0.4 µM) | 43.8% | 214% | 94.7% | 65% | 75.5% | 85.3% | 29.5% | 93% | 39.8% | 121% |
| C[C@]12O[C@H](C[C@]1(O)CO)n1c3ccccc3c3c4c(c5c6ccccc6n2c5c31)CNC4=O [Lestaurtinib] + CO[C@H]1C[C@@H]2CC[C@@H](C)[C@@](O)(O2)C(=O)C(=O)N2CCCC[C@H]2C(=O)O[C@H]([C@H](C)C[C@@H]2CC[C@@H](OCCO)[C@H](OC)C2)CC(=O)[C@H](C)/C=C(\C)[C@@H](O)[C@@H](OC)C(=O)[C@H](C)C[C@H](C)/C=C/C=C/C=C/1C [everolimus] (first compound 0.004 µM, partner dose 0.02 µM) | 283% | 294% | 78% | 124% | 185% | 229% | 333% | 284% | 352% | 128% |

Rewritten tab-delimited: part of the list above.
SMILES	cleaved PARP positive nuclei fraction (CBRC034)	cleaved PARP positive nuclei fraction (COLO792)	cleaved PARP positive nuclei fraction (COLO800)	cleaved PARP positive nuclei fraction (COLO829)	cleaved PARP positive nuclei fraction (G361)	cleaved PARP positive nuclei fraction (IPC-298)	cleaved PARP positive nuclei fraction (IST-MEL1)	cleaved PARP positive nuclei fraction (LB2518-MEL)	cleaved PARP positive nuclei fraction (LOXIMVI)	cleaved PARP positive nuclei fraction (MEL-HO)
C[C@]12O[C@H](C[C@]1(O)CO)n1c3ccccc3c3c4c(c5c6ccccc6n2c5c31)CNC4=O [Lestaurtinib] + CNC(=O)c1cc(Oc2ccc(NC(=O)Nc3ccc(Cl)c(C(F)(F)F)c3)cc2)ccn1 [sorafenib] (first compound 0.004 µM, partner dose 0.4 µM)	72.5%	14.6%	86.6%	56.7%	75.3%	63.5%	32.2%	228%	63.8%	195%
Cn1cc(C2=C(c3cn(C4CCN(Cc5ccccn5)CC4)c4ccccc34)C(=O)NC2=O)c2ccccc21 [Enzastaurin] + Cc1cc(Nc2cc(N3CCN(C)CC3)nc(/C=C/c3ccccc3)n2)n[nH]1 [ENMD2076] (first compound 0.8 µM, partner dose 0.04 µM)	125%	48.8%	114%	127%	65.7%	86.8%	29.4%	224%	122%	38.4%
C[C@]12O[C@H](C[C@]1(O)CO)n1c3ccccc3c3c4c(c5c6ccccc6n2c5c31)CNC4=O [Lestaurtinib] + N.N.[Cl][Pt][Cl] [cisplatin] (first compound 0.004 µM, partner dose 1.6 µM)	66.9%	100%	81.2%	64.7%	110%	89.5%	59.5%	96.6%	143%	87.1%
Nc1nc(F)nc2c1ncn2[C@@H]1O[C@H](CO)[C@@H](O)[C@@H]1O [fludarabine] + C[As](C)SC[C@H](NC(=O)CC[C@H](N)C(=O)O)C(=O)NCC(=O)O [Darinaparsin] (first compound 0.2 µM, partner dose 0.4 µM)	117%	41.4%	198%	96.2%	136%	243%	67.1%	108%	124%	115%
C[C@]12O[C@H](C[C@]1(O)CO)n1c3ccccc3c3c4c(c5c6ccccc6n2c5c31)CNC4=O [Lestaurtinib] + CO[C@H]1C[C@@H]2CC[C@@H](C)[C@@](O)(O2)C(=O)C(=O)N2CCCC[C@H]2C(=O)O[C@H]([C@H](C)C[C@@H]2CC[C@@H](OCCO)[C@H](OC)C2)CC(=O)[C@H](C)/C=C(\C)[C@@H](O)[C@@H](OC)C(=O)[C@H](C)C[C@H](C)/C=C/C=C/C=C/1C [everolimus] (first compound 0.004 µM, partner dose 0.02 µM)	283%	294%	78%	124%	185%	229%	333%	284%	352%	128%
